# Counter-ions that a name gives are not always drawn. The whole screen tested about 5,300 compounds, of which about 130 (2.5%) showed an effect of 50% or more. The list shows a part of the results.
# Test system: M. mycetomatis strain mm55
# Conditions: primary screen, metabolic activity vs growth control; 96 h, 2 µM; inhibitor
row,Structure (SMILES),% viability [%]
1,"CC(=O)N1CCC(C(=O)N(CCCN2CCC(Cc3ccc(C(N)=O)cc3)CC2)c2ccc(C)c(Cl)c2)CC1 [ONC0000715, tak220]",84.93
2,"CCS(=O)(=O)CCn1c([N+](=O)[O-])cnc1C [ONC0004134, tinidazole]",110.5
3,"O=C1CCc2cc(OCCCCc3nnnn3C3CCCCC3)ccc2N1 [ONC0004245, cilostazol]",59.68
4,"CC(=O)N(CC(C)C(=O)O)c1c(I)cc(I)c(N)c1I (stereo not drawn) [ONC0002944, iocetamicacid]",59.58
5,"COc1ccc(OCC2c3cc(OC)c(OC)cc3CCN2C(=O)c2cccc(Cl)c2)cc1 (stereo not drawn) [ONC0002470, ciq]",70.64
6,"CC(=O)OCC1=C(C(=O)O)N2C(=O)[C@@H](NC(=O)CSc3ccncc3)[C@H]2SC1 [ONC0000719, cephapirin sodium]",77.34
7,"O=C1OC2(c3ccc(O)cc3Oc3cc(O)ccc32)c2ccccc21 [ONC0004219, fluorescein]",82.86
8,"C[C@H]1C[C@H]2[C@@H]3CCC4=CC(=O)CC[C@]4(C)[C@H]3C(=O)C[C@]2(C)[C@@]1(O)C(=O)CO [ONC0004828, betapar meprednisone]",78.26
9,"CCCCCCCC/C=C\CCCCCCCC(=O)NCCc1ccc(O)c(O)c1 [ONC0001500, olda]",114.1
10,"CC(Nc1ncnc2nc[nH]c12)c1cc2ccc(F)cc2nc1-c1ccccn1 (stereo not drawn) [ONC0004426, amg319]",156.7
11,"O=C1C(c2ccccn2)=[N+]([O-])c2ccccc21 [ONC0001887, pit tosylate]",113.2
12,"CNc1nc(NCc2ccc(NS(C)(=O)=O)cc2Cl)cc(-c2ccccn2)n1 [ONC0003557, tcg1008]",113.9
13,"CCCCCCCCc1ccc(CCC(N)(CO)CO)cc1 [ONC0005159, fingolimod fty720 hcl]",130.1
14,Nc1ncnc2c1c(-c1cccc(OCc3ccccc3)c1)cn2C1CC(CN2CCC2)C1 (stereo not drawn) [ONC0005227],172.4
15,"C[C@]12CC[C@@H]3c4ccc(O)cc4CC[C@H]3[C@@H]1CCC2=O [ONC0000773, estrone]",80.26
16,"c1ccc(N2CCN(Cc3nc4ccccc4[nH]3)CC2)nc1 [ONC0001520, abt724]",87.74
17,"C[C@@H]1NC(C)(C)CO[C@@]1(O)c1cccc(Cl)c1 [ONC0001157, radafaxine hydrochloride]",85.48
18,"COC(=O)c1c(-c2cc(OC)c(OC)c(OC)c2)c2ccnc(OCc3ncccn3)c2c(=O)n1Cc1ccnc(C)c1 [ONC0001287, t0156]",86.64

# No new results follow: entries from further up.
row,Structure (SMILES),% viability [%]
3,"O=C1CCc2cc(OCCCCc3nnnn3C3CCCCC3)ccc2N1 [ONC0004245, cilostazol]",59.68
4,"CC(=O)N(CC(C)C(=O)O)c1c(I)cc(I)c(N)c1I (stereo not drawn) [ONC0002944, iocetamicacid]",59.58
